# Experimental data: PubChem BioAssay AID493246 (Drosophila RNAi Screening Center, 2011)
# Screen: 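Genes fly cells need to grow and stay alive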 (primary screen)
# Cell system: Drosophila Kc and S2R+ cells
# Reagent: long dsRNA against Drosophila genes
# Measured: 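Cell number per well after knock-down, printed as raw plate values; calls were based on per-plate z-scores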
# Reading the numbers: Kc cell number and S2R+ cell number: higher = more cells remaining
# Active means: 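Counted as a hit if cell number falls by a z-score of at least 3 within its plate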
# In all, the deposit lists about 21,000 reagents; this is a random part of those with a known target gene and a result. Over the whole deposit, 429 (2%) got an active call. 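Values are raw and not normalised between plates; calls rest on per-plate z-scores that were not deposited.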 A plus sign joins genes that one reagent is predicted to hit. The record does not give: the amount of reagent, the time to read-out.
"Kc cell number, rep 1","Kc cell number, rep 2","S2R+ cell number, rep 1","S2R+ cell number, rep 2",activity call,gene knocked down,DRSC id
1.62e6,1.68e6,9.37e5,1.04e6,inactive,ssh,DRSC16730
1.87e6,1.79e6,1.12e6,1.29e6,inactive,CG1440,DRSC17915
1.44e6,1.49e6,1.03e6,1.13e6,inactive,Ntf-2,DRSC20552
1.48e6,1.61e6,1.19e6,1.23e6,inactive,CG15185,DRSC12565
6.03e5,,8.64e5,,inactive,Noa36,DRSC16761
8.72e5,1.09e6,1.36e6,6.66e5,inactive,PGRP-LD + Pmi,DRSC10512
1.28e6,1.23e6,1.25e6,1.29e6,inactive,PGRP-LD + Pmi,DRSC10513
1.29e6,1.34e6,1.28e6,1.37e6,inactive,Est-6,DRSC11162
1.34e6,1.42e6,1.24e6,1.17e6,inactive,B4,DRSC01868
1.55e6,1.61e6,1.27e6,1.41e6,inactive,B4,DRSC03175
1.82e6,1.89e6,1.37e6,1.45e6,inactive,tzn,DRSC11755
1.45e6,1.44e6,7.78e5,9.13e5,inactive,ATPsyndelta,DRSC18248
5.78e5,,8.33e5,,inactive,Kap3,DRSC19426
1.73e6,1.65e6,1.28e6,1.49e6,inactive,Sdb,DRSC06272
1.83e6,1.73e6,1.34e6,1.52e6,inactive,Sdb,DRSC06273
1.49e6,1.53e6,1.14e6,1.20e6,inactive,Sdb,DRSC07155
1.55e6,1.53e6,1.21e6,1.29e6,inactive,CG42319,DRSC06645
1.45e6,1.52e6,1.24e6,1.36e6,inactive,CG42319,DRSC06646
1.30e6,1.43e6,1.27e6,1.35e6,inactive,CG5235,DRSC10494
1.48e6,1.48e6,1.27e6,1.37e6,inactive,Sirt6,DRSC16010
1.71e6,1.70e6,9.37e5,9.92e5,inactive,CG11350,DRSC08181
1.48e6,1.56e6,1.09e6,1.36e6,inactive,CG1299,DRSC08300
1.04e6,1.18e6,8.99e5,9.36e5,inactive,bgm,DRSC03495
1.51e6,1.83e6,1.09e6,1.19e6,inactive,Toll-9,DRSC11776
1.53e6,1.49e6,1.10e6,1.28e6,inactive,Fbw5,DRSC03146
1.57e6,1.68e6,1.22e6,1.34e6,inactive,Def,DRSC07398
1.58e6,1.53e6,1.02e6,1.16e6,inactive,CG16758,DRSC07984
1.44e6,1.58e6,1.34e6,1.36e6,inactive,CG16758,DRSC08492
1.48e6,1.53e6,1.11e6,1.21e6,inactive,CG5984,DRSC15930
1.53e6,1.61e6,1.26e6,1.40e6,inactive,Chro,DRSC11630
1.51e6,1.50e6,1.00e6,1.09e6,inactive,mei-38,DRSC18564
1.52e6,1.51e6,1.18e6,1.34e6,inactive,CG9003,DRSC07317
1.49e6,1.67e6,1.35e6,1.57e6,inactive,CG11755,DRSC14374
5.45e5,,8.87e5,,inactive,GAA1,DRSC18267
6.00e5,,9.14e5,,inactive,Sclp,DRSC19851
1.40e6,1.41e6,1.18e6,1.27e6,inactive,CG2818,DRSC00540

Continued (7 carried over from the part before).
"Kc cell number, rep 1","Kc cell number, rep 2","S2R+ cell number, rep 1","S2R+ cell number, rep 2",activity call,gene knocked down,DRSC id
1.53e6,1.61e6,1.26e6,1.40e6,inactive,Chro,DRSC11630
1.51e6,1.50e6,1.00e6,1.09e6,inactive,mei-38,DRSC18564
1.52e6,1.51e6,1.18e6,1.34e6,inactive,CG9003,DRSC07317
1.49e6,1.67e6,1.35e6,1.57e6,inactive,CG11755,DRSC14374
5.45e5,,8.87e5,,inactive,GAA1,DRSC18267
6.00e5,,9.14e5,,inactive,Sclp,DRSC19851
1.40e6,1.41e6,1.18e6,1.27e6,inactive,CG2818,DRSC00540
1.38e6,1.41e6,1.16e6,1.20e6,inactive,Bgb,DRSC08148
1.49e6,1.53e6,1.40e6,1.47e6,inactive,CG31100,DRSC14453
1.56e6,1.61e6,1.35e6,1.47e6,inactive,CG31100,DRSC14455
1.52e6,1.62e6,1.19e6,1.30e6,inactive,Ripalpha,DRSC02657
1.58e6,1.73e6,1.23e6,1.32e6,inactive,Coq2,DRSC16516
1.46e6,1.54e6,1.20e6,1.41e6,inactive,Cpr49Af,DRSC07202
1.52e6,1.46e6,1.06e6,1.16e6,inactive,CG43901,DRSC19397
1.46e6,1.38e6,7.66e5,8.17e5,inactive,CG43901,DRSC19652
1.49e6,1.68e6,1.34e6,3.42e5,inactive,Mpp6,DRSC03169
1.32e6,1.41e6,1.22e6,1.25e6,inactive,JhI-21,DRSC02161
1.52e6,1.52e6,1.12e6,1.23e6,inactive,lectin-30A,DRSC02560
1.58e6,1.60e6,1.27e6,1.34e6,inactive,CG3746,DRSC04412
1.38e6,1.47e6,1.14e6,1.19e6,inactive,CycJ,DRSC08653
1.41e6,1.41e6,1.31e6,1.30e6,inactive,Cds,DRSC10938
1.65e6,1.62e6,1.27e6,1.43e6,inactive,CG13540,DRSC04182
1.41e6,1.33e6,1.04e6,1.19e6,inactive,CG17328,DRSC01927
1.55e6,1.60e6,1.12e6,1.33e6,inactive,CG4438,DRSC02746
1.33e6,1.46e6,1.21e6,1.38e6,inactive,CG14881,DRSC15005
1.70e6,1.55e6,1.04e6,1.15e6,inactive,CG5592,DRSC10524
1.27e6,1.63e6,1.16e6,1.14e6,inactive,eEF1alpha2,DRSC14079
1.42e6,1.42e6,9.23e5,1.05e6,inactive,eEF1alpha2,DRSC16658
1.71e6,1.81e6,1.31e6,1.53e6,inactive,Patronin,DRSC06756
1.65e6,1.71e6,1.13e6,1.29e6,inactive,Patronin,DRSC06757
1.59e6,1.68e6,1.14e6,1.31e6,inactive,Patronin,DRSC06994
